These are yes or no findings as the source states them, for the method shown. In cells and extracts the contact can be indirect. Here binding means that the protein was enriched with, or labelled near, the bait; the list need not be complete. For some assays here: Tags and fused reporters may be left off the sequences shown.

In assay [1] the target is T1, Put7-V5 (Ylr283w with a C-terminal V5 tag) (S. cerevisiae) (UniProt Q05867).
T1 sequence: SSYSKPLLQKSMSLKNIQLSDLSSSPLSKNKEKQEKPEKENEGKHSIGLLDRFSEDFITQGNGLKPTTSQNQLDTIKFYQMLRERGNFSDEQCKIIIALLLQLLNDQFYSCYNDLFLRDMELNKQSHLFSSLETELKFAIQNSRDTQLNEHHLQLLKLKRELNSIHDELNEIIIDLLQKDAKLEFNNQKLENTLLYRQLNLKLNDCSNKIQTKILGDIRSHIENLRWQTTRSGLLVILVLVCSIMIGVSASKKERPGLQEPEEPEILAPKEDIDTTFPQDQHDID
Briefly: affinity purification with mass spectrometry; 3 mg crude mitochondria from put6Δ/put7Δ cells with empty vector or Put6-V5/Put7-V5, solubilized in IP buffer (20 mM HEPES-KOH pH 7.4, 1 mM CaCl2, 100 mM NaCl, 1% digitonin, 10% glycerol); anti-V5 antibody cross-linked to Dynabeads Protein G; quantitative MS, normalized to empty vector.

Assay [2] concerns the target Put6-V5 (Fmp32 with a C-terminal V5 tag) (S. cerevisiae). The assay is described as above.

With Put6 (Fmp32), endogenous, the binding result in assay [1] is “binds”.

B1: Put7 (Ylr283w), endogenous (protein, UniProt Q05867 30-314)
chain: T1 sequence
Regarding B1, the binding entry in assay [2] is “binds”.

Values taken from PMC7519068.
